Test results: patent US20250011471A1
No constants are given. Whether binding was seen depends on the method and setting. Some entries that bind do so weakly or less than the wild type.

Experiments:
Assay in all cases: FACS on HEK293T cells transiently transfected with the KLB cDNA
[1] = molecular target: cynomolgus monkey KLB (+N-ter FLAG) (cynomolgus monkey)
[2] = molecular target: rhesus monkey KLB (+N-ter FLAG) (rhesus monkey)
[3] = molecular target: rabbit KLB (+N-ter FLAG) (rabbit)

Measured: binding

B1: 8E1 (antibody, V domains shown)
VH: EVQLQQSGAELVKPGASVKLSCTAADFNIKDTYMHWVKQRPEQGLEWIGRIDPSNGNAKYDPKFQGKASITADSSSNTAYLHLSSLTSEDTAVYYCASRALGNGYALGYWGQGTSVTVSS
VL: DIQMTQSSSYLSVSLGGSVTITCKASDHINNWLAWYQQKPGNAPRLLIYGTTNLETGVPSRFSGSGSGRDYILSITSLQSEDVASYYCQQYWNTPFTFGSGTKLEIK
binds: all assays above
